Results: publication PMC3812651
These are yes or no findings as the source states them, for the method shown. Binding seen in cells or lysates may run through a third protein. Some entries that bind do so weakly or less than the wild type.

Chains of the proteins cited; added tags and fusions are not shown. Lines headed by an entry give the natural chain unless they say otherwise; changes in a name come on top.
UniProt Q8N6T7: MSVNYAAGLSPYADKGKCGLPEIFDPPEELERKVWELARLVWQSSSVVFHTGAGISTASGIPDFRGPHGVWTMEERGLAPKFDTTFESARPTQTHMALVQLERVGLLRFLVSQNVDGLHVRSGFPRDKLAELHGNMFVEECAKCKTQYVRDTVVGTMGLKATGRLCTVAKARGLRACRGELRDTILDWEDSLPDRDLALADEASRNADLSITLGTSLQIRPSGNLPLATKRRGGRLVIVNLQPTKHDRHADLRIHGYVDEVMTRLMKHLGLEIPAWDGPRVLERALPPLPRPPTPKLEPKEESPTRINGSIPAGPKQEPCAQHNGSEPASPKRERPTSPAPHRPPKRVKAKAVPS
UniProt Q13283: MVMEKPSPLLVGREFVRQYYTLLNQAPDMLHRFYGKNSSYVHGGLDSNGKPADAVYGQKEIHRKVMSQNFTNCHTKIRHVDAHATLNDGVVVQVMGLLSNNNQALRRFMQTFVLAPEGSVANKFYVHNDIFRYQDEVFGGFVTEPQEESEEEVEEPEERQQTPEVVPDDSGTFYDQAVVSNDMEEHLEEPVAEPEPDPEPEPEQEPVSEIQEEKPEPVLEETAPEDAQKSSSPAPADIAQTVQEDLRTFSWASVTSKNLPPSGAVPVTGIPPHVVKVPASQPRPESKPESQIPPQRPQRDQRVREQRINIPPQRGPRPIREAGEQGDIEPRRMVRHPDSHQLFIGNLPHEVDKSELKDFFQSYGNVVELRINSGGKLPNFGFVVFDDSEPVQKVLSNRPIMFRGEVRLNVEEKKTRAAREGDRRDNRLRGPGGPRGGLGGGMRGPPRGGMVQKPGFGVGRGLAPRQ

Columns and labels:
[1] = target: endogenous SIRT6 (human cells) (human (endogenous in 293T)) (UniProt Q8N6T7); assay: co-IP; endogenous SIRT6 IP from 293 (293T) cell lysate in RIPA buffer (50 mM TrisHCl pH7.4, 150 mM NaCl, 2 mM EDTA, 1% NP-40, 0.1% SDS), western
[2] = target: Flag-tagged SIRT6, wild type, expressed in 293T (293) cells (UniProt Q8N6T7); assay: co-IP; FLAG-SIRT6 (wild type and mutants) IP from 293 cell lysate in RIPA buffer (50 mM TrisHCl pH7.4, 150 mM NaCl, 2 mM EDTA, 1% NP-40, 0.1% SDS), western
[3] = target: 3X-Flag-tagged SIRT6 mutant G60A (UniProt Q8N6T7); assay: as above
[4] = target: SIRT6 with a C-terminal FLAG tag, stably expressed in HeLa S3 cells (UniProt Q8N6T7); assay: co-IP; SIRT6-FLAG IP from cytoplasmic (S100), nuclear extract (NE) and chromatin enriched (P3) fractions, western for G3BP1
[5] = target: SIRT6 with a C-terminal FLAG tag, stably expressed in HeLa S3 cells (UniProt Q8N6T7); assay: co-IP; SIRT6-FLAG IP from HeLa nuclear extract, western for G3BP1; also after DNAse and RNAse treatment of the nuclear extract and at 1 M NaCl

Measured: binding

G3BP1 (GTPase Activating Protein Binding Protein 1), endogenous in human cells (from UniProt Q13283 1-466)
binds: all assays above
